Test results taken from the supplement of paper PMC10849652.
Some of the results follow.

Protein sequences, listed by entry. Tags and fused reporters are not part of them. Lines headed by an entry give the natural chain unless they say otherwise; changes in a name come on top.
UniProt Q9BXH1: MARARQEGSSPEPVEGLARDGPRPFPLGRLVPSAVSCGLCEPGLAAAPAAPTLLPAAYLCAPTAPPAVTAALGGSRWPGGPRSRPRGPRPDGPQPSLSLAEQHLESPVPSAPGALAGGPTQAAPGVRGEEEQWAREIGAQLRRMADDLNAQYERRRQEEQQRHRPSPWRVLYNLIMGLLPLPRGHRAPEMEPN
UniProt O15382: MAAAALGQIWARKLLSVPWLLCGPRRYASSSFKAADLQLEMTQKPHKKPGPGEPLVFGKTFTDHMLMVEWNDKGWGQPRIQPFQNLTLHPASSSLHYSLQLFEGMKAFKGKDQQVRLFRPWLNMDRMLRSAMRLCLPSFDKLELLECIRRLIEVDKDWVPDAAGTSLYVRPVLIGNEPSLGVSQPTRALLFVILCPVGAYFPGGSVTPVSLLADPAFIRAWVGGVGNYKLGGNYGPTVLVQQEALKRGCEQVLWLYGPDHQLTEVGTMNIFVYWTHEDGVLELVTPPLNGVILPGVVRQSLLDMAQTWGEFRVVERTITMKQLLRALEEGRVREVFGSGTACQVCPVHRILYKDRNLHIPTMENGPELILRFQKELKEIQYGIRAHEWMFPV
UniProt Q92843: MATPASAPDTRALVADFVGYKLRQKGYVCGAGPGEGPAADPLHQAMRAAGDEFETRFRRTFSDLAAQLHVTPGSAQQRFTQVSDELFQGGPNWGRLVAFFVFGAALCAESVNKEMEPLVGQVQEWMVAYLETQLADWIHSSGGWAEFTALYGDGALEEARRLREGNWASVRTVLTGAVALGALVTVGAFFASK
UniProt P54687: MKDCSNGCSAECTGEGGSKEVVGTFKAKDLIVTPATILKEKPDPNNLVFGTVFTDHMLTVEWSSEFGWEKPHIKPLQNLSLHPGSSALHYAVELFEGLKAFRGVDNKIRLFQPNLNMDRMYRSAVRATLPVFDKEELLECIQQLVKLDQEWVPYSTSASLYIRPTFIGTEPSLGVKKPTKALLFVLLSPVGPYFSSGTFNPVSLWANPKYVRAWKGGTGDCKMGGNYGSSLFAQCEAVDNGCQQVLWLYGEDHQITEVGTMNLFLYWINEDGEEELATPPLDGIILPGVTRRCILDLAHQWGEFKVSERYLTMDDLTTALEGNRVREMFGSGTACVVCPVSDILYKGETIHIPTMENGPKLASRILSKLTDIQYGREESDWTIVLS
UniProt P46736, whole entry, looked up: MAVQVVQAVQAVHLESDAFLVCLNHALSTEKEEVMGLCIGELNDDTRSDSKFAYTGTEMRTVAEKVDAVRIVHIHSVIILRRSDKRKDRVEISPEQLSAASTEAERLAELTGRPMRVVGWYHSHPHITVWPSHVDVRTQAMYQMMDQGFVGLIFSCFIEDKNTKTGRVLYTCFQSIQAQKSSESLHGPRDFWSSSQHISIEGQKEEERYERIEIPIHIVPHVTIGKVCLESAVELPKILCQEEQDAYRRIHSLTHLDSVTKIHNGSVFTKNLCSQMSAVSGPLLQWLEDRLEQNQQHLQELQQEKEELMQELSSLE
UniProt Q92994: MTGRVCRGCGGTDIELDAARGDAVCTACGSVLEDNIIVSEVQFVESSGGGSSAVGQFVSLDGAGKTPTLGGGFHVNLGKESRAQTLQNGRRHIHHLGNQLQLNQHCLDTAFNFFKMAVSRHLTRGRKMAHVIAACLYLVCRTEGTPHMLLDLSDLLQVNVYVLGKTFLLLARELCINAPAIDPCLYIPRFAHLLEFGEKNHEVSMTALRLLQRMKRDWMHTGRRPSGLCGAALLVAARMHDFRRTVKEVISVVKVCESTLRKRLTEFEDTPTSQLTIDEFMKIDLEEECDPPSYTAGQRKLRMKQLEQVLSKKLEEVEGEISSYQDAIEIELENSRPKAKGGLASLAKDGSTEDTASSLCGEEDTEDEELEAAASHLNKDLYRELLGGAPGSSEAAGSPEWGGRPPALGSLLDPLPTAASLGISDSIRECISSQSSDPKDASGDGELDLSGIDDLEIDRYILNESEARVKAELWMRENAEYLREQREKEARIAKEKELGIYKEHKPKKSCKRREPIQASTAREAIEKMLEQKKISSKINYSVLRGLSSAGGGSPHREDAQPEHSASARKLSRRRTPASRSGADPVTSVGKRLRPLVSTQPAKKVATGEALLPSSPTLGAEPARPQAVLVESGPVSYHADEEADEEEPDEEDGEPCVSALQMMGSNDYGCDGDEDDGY
UniProt O60512: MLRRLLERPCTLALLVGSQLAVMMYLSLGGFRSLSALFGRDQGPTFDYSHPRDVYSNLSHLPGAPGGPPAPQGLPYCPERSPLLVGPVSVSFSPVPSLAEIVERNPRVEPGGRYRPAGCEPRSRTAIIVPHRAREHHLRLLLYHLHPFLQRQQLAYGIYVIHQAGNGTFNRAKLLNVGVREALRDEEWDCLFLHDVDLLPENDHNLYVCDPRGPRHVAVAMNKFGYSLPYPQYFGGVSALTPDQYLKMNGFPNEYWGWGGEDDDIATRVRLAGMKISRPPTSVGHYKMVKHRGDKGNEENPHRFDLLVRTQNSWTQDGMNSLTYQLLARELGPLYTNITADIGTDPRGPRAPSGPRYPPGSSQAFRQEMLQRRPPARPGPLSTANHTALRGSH
UniProt Q5VW32: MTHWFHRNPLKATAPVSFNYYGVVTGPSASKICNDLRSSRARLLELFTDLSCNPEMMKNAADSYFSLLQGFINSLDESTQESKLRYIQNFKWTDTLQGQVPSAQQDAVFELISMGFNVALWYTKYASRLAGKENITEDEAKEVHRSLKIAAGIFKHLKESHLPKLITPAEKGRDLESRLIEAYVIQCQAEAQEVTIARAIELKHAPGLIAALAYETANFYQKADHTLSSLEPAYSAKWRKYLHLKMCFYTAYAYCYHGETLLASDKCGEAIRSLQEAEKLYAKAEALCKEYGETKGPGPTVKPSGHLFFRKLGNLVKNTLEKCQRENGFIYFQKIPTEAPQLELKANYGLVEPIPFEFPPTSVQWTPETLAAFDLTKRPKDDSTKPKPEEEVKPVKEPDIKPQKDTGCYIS
UniProt P30043: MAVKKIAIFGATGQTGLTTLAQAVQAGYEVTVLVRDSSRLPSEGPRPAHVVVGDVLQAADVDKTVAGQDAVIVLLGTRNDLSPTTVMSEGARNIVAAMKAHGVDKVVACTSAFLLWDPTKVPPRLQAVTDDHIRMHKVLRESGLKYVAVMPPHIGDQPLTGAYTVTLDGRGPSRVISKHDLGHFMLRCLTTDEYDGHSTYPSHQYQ
UniProt P56945: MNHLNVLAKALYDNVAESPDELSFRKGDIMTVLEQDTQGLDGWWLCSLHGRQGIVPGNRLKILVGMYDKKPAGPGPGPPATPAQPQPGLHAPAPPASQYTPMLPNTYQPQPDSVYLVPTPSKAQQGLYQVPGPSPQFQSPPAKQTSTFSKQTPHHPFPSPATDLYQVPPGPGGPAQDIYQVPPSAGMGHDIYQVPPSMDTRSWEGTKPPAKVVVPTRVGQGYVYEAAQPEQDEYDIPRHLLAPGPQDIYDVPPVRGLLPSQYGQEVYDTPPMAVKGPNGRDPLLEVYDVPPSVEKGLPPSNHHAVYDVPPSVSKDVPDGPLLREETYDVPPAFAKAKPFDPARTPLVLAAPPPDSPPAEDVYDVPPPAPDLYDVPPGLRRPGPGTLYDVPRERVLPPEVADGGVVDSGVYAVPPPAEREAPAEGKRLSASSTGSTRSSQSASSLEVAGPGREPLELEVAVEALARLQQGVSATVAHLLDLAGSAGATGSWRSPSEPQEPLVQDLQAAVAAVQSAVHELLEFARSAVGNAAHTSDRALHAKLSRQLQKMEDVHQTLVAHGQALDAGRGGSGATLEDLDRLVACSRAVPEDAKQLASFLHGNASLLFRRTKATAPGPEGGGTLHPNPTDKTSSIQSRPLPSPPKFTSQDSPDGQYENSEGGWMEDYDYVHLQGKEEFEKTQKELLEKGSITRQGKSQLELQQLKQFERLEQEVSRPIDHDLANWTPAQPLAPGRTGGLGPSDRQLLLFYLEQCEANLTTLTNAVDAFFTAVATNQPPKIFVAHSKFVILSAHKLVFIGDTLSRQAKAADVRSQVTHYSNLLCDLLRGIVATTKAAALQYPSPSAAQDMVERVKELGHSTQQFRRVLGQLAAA
UniProt Q9Y276: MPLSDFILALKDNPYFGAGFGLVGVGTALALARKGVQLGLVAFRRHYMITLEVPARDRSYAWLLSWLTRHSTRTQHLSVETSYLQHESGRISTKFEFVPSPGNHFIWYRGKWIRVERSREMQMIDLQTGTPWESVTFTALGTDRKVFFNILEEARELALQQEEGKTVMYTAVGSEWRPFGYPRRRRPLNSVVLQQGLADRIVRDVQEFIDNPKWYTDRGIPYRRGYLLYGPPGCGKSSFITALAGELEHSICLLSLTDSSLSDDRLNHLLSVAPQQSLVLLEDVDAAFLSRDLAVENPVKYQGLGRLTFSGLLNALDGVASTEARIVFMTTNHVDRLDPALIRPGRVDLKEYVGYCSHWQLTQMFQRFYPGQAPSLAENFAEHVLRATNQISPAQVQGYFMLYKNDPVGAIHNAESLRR
UniProt O95429: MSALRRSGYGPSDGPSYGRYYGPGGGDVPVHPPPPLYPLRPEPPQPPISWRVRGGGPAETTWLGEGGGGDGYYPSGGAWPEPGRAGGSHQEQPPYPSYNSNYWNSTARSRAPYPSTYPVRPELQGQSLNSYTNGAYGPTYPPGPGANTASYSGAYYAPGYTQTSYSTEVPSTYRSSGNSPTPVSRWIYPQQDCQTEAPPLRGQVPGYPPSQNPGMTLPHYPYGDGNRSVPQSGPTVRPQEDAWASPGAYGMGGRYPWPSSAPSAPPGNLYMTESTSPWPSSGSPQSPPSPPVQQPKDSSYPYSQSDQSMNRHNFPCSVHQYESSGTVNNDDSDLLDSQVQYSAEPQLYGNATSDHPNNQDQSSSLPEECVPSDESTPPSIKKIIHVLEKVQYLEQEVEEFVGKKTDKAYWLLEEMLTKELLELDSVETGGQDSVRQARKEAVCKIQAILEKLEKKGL
UniProt O75531: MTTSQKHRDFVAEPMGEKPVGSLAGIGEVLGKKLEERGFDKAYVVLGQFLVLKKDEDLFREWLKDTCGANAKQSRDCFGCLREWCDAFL
UniProt Q9NUP1: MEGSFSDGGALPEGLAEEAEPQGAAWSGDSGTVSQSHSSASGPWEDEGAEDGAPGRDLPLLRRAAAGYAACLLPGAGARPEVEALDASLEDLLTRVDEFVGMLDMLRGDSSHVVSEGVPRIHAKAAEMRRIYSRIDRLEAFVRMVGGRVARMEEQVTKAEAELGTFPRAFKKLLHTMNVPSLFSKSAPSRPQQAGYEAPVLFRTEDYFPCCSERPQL
UniProt Q53S33: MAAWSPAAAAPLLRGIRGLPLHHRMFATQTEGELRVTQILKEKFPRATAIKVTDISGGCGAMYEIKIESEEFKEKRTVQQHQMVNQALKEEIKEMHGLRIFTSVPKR
UniProt Q9NYF8, whole entry, looked up: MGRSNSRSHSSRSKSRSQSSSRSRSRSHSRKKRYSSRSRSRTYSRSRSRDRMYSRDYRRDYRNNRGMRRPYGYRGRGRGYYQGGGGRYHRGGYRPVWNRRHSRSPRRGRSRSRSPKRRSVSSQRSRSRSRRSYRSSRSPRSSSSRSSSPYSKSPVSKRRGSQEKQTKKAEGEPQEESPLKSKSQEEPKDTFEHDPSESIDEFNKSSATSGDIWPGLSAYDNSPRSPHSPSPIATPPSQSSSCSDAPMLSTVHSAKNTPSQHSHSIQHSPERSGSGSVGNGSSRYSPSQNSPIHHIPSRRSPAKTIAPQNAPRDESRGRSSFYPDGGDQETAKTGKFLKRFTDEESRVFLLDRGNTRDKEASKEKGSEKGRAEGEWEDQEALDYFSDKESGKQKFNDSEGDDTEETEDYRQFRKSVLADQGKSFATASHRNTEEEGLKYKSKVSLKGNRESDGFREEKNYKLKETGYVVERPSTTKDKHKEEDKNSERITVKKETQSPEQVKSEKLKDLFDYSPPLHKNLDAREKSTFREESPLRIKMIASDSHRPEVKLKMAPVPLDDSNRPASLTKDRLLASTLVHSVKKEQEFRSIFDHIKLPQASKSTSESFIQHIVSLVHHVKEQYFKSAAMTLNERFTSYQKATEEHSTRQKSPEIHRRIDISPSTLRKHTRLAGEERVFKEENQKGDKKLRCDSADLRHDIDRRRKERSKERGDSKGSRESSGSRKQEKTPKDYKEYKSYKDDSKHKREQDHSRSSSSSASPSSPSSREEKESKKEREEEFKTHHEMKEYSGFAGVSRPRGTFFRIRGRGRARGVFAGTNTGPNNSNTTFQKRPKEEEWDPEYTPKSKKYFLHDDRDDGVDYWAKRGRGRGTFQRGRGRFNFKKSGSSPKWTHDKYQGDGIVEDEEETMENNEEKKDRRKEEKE
UniProt Q96B45: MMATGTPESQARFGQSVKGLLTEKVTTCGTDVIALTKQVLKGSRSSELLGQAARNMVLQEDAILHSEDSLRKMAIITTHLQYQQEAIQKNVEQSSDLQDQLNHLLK
UniProt O95816: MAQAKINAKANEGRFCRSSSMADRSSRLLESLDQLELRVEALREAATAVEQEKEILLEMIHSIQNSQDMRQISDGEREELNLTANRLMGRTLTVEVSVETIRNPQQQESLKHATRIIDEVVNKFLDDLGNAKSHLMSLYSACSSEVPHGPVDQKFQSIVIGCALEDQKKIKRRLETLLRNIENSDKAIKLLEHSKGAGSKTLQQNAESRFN

Columns and labels:
Assay in all cases: log2 fold change, soluble protein after heating vs DMSO (PISA); higher = thermal stabilisation; K562 lysate, 10 uM; active = over 0.2 and 3.5 SD of the protein, either way, in both replicates (recomputed)
[1] = compound: C1=CC=C(C=C1)[C@H](COC2=CC3=C(C=C2)NC(=O)N3)NC(=O)C4=CC=CN(C4=O)CC5=CC(=C(C=C5)F)F
Procedure, shortened: (§1)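 Thermal stability, expressed as log-two fold change relative to solvent controls, is given from duplicates. Crude K562 extract in PBS pH 7.4 with 1 mM MgCl2, at 1 mg/mL protein, was treated with 10 μM compound for 30 min and heated in aliquots for 3 min across 48°C-58°C. After pooling, adjustment to 0.5% NP-40 at 4°C and centrifugation at 21,000xg for 90 min, supernatant protein was measured by TMTpro 16plex LC-MS/MS with channel sums equalised.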

[2] = compound: CC1=C(SC2=C1C(=N[C@H](C3=NN=C(N32)C)CC(=O)N)C4=CC=C(C=C4)Cl)C
Procedure, shortened: as §1

[3] = compound: CC1=C2C(=CC=C1)N=C(N(C2=O)C3=CC=CC=C3C)CN4C=NC5=C(N=CN=C54)N
Procedure, shortened: as §1

[4] = compound: Cc1sc2c(c1C)C(c1ccc(Cl)cc1)=N[C@@H](CC(=O)OC(C)(C)C)c1nnc(C)n1-2
Procedure, shortened: as §1

[5] = compound: c1ccc([C@@H]2C[C@H]2NC2CCNCC2)cc1
Procedure, shortened: as §1

Measured: log2 fold change

BCL2L1 (UniProt Q07817)
inactive: [1] -0.108 | [2] 0.045 | [3] 0.023 | [4] 0.011 | [5] -0.027

BCL10 (UniProt O95999)
inactive: [1] 0.049 | [2] 0.014 | [3] 0.004 | [4] -0.03 | [5] -0.012

BCKDHA (UniProt P12694)
inactive: [1] 0.049 | [2] -0.041 | [3] 0.134 | [4] -0.044 | [5] -0.027

BAX isoform 2 (UniProt Q07812)
inactive: [1] -0.008 | [2] -0.003 | [3] 0.007 | [4] -0.067 | [5] 0.043

BBC3 (UniProt Q9BXH1)
inactive: [1] -0.034 | [2] 0.087 | [3] 0.07 | [4] -0.126 | [5] -0.065

BCAT2 (UniProt O15382)
inactive: [1] 0.024 | [2] 0.028 | [3] -0.011 | [4] -0.025 | [5] -0.048

BSDC1 (UniProt Q9NW68)
inactive: [1] 0.155 | [2] -0.025 | [3] 0.021 | [4] -0.004 | [5] -0.026

BABAM2 (UniProt Q9NXR7)
inactive: [1] 0.023 | [2] -0.045 | [3] 0.015 | [4] -0.001 | [5] -0.012

BPHL (UniProt Q86WA6)
inactive: [1] 0.284 | [2] 0.038 | [3] -0.028 | [4] 0.158 | [5] 0.014

BCL2L2 isoform 2 (UniProt Q92843)
inactive: [1] 0.031 | [2] -0.008 | [3] -0.01 | [4] 0.028 | [5] -0.037

BIRC6 (UniProt Q9NR09)
inactive: [1] 0.001 | [2] 0.003 | [3] -0.007 | [4] 0.004 | [5] 0.004

BABAM1 (UniProt Q9NWV8)
inactive: [1] 0.081 | [2] 0.005 | [3] 0.067 | [4] -0.008 | [5] -0.036

BRD4 (UniProt O60885)
active: [2] 0.868 | [4] 0.415
inactive: [1] 0.022 | [3] 0.003 | [5] -0.015

BCL7C isoform 2 (UniProt Q8WUZ0)
inactive: [1] 0.017 | [2] 0.016 | [3] -0.066 | [4] 0.059 | [5] 0.013

BCAT1 (UniProt P54687)
inactive: [1] 0.014 | [2] 0.02 | [3] -0.009 | [4] -0.012 | [5] -0.031

BAG6 isoform 3 (UniProt P46379)
inactive: [1] -0.011 | [2] 0.025 | [3] -0.007 | [4] -0.039 | [5] 0.075

BRCC3 (UniProt P46736)
inactive: [1] 0.002 | [2] 0.004 | [3] -0.036 | [4] 0.018 | [5] 0.004

BCL9L (UniProt Q86UU0)
inactive: [1] -0.108 | [2] -0.015 | [3] -0.031 | [4] -0.047 | [5] 0.005

BRF1 (UniProt Q92994)
inactive: [1] 0.059 | [2] -0.049 | [3] 0.086 | [4] 0.062 | [5] 0.005

Copied from the listing (2 entries):
BABAM1 (UniProt Q9NWV8)
inactive: [1] 0.081 | [2] 0.005 | [3] 0.067 | [4] -0.008 | [5] -0.036

BRD4 (UniProt O60885)
active: [2] 0.868 | [4] 0.415
inactive: [1] 0.022 | [3] 0.003 | [5] -0.015

Continuation:

BRCA2 (UniProt P51587)
inactive: [1] -0.248 | [2] -0.051 | [3] -0.039 | [4] -0.146 | [5] -0.086

BCOR (UniProt Q6W2J9)
inactive: [1] 0.031 | [2] 0.096 | [3] -0.107 | [4] -0.02 | [5] -0.287

B4GALT3 (UniProt O60512)
inactive: [1] 0.004 | [2] 0.032 | [3] 0.095 | [4] 0.016 | [5] 0.096

BMP2K (UniProt Q9NSY1)
inactive: [1] -0.046 | [2] -0.121 | [3] -0.09 | [4] 0 | [5] -0.146

BROX (UniProt Q5VW32)
inactive: [1] -0.007 | [2] 0.002 | [3] -0.007 | [4] 0.001 | [5] 0.039

BRCA1 isoform 7 (UniProt P38398)
inactive: [1] -0.052 | [2] 0.052 | [3] 0.023 | [4] 0.009 | [5] 0.03

BLVRB (UniProt P30043)
inactive: [1] 0.01 | [2] -0.052 | [3] 0.025 | [4] 0.022 | [5] -0.011

BCKDK (UniProt O14874)
inactive: [1] -0.036 | [2] -0.007 | [3] -0.037 | [4] 0.016 | [5] 0.012

BID isoform 2 (UniProt P55957)
inactive: [1] 0.026 | [2] -0.076 | [3] 0.004 | [4] -0.075 | [5] -0.028

BCAR1 isoform 6 (UniProt P56945)
inactive: [1] 0.01 | [2] 0.013 | [3] -0.045 | [4] -0.043 | [5] 0.107

BCS1L (UniProt Q9Y276)
inactive: [1] -0.071 | [2] 0.044 | [3] 0.052 | [4] 0.048 | [5] -0.022

BAG4 (UniProt O95429)
inactive: [1] 0.059 | [2] 0.021 | [3] -0.023 | [4] 0.03 | [5] 0.003

BRAF (UniProt P15056)
inactive: [1] -0.024 | [2] -0.051 | [3] 0.012 | [4] -0.017 | [5] -0.06

BCCIP (UniProt Q9P287)
inactive: [1] -0.001 | [2] -0.008 | [3] -0.026 | [4] 0.008 | [5] 0.042

BET1 (UniProt O15155)
inactive: [1] -0.053 | [2] 0.013 | [3] 0.032 | [4] 0.038 | [5] 0.009

BAD (UniProt Q92934)
inactive: [1] 0.032 | [2] 0 | [3] -0.036 | [4] -0.04 | [5] -0.018

BCAS2 (UniProt O75934)
inactive: [1] 0.006 | [2] -0.023 | [3] 0.028 | [4] 0.015 | [5] 0.04

BANF1 (UniProt O75531)
inactive: [1] 0.022 | [2] -0.024 | [3] 0.167 | [4] -0.014 | [5] 0.044

BCAP31 isoform 2 (UniProt P51572)
inactive: [1] -0.011 | [2] -0.025 | [3] -0.019 | [4] 0.001 | [5] -0.035

BPGM (UniProt P07738)
inactive: [1] 0.032 | [2] -0.041 | [3] 0.076 | [4] 0.051 | [5] 0.045

BPNT1 (UniProt O95861)
inactive: [1] 0.033 | [2] -0.008 | [3] -0.009 | [4] 0.01 | [5] -0.033

BLOC1S4 (UniProt Q9NUP1)
inactive: [1] 0.017 | [2] -0.03 | [3] -0.006 | [4] -0.006 | [5] 0.038

B4GALT1 (UniProt P15291)
inactive: [1] -0.005 | [2] 0.03 | [3] -0.102 | [5] 0.006

BECN1 (UniProt Q14457)
inactive: [1] -0.001 | [2] -0.058 | [3] 0.013 | [4] -0.011 | [5] -0.017

BORCS5 (UniProt Q969J3)
inactive: [1] -0.12 | [2] 0 | [3] -0.015 | [4] -0.005 | [5] -0.011

BCL7C (UniProt Q8WUZ0)
inactive: [1] 0.124 | [2] 0.038 | [4] -0.004 | [5] -0.035

BOLA3 (UniProt Q53S33)
inactive: [1] 0.006 | [2] -0.012 | [3] 0.015 | [4] -0.002 | [5] -0.073

BCL2L11 (UniProt O43521)
inactive: [1] 0.105 | [2] -0.337 | [3] -0.116 | [5] 0.022

BRAP (UniProt Q7Z569)
inactive: [1] 0.016 | [2] -0.013 | [3] 0.011 | [4] 0.006 | [5] -0.046

BCL9 (UniProt O00512)
inactive: [1] 0.13 | [2] 0.123 | [3] -0.265 | [5] 0.125

BCLAF1 (UniProt Q9NYF8)
inactive: [1] 0.048 | [2] -0.016 | [3] 0.043 | [4] -0.034 | [5] 0.1

BORCS7 (UniProt Q96B45)
inactive: [1] 0.1 | [2] 0 | [3] 0.123 | [5] -0.005

BAG2 (UniProt O95816)
inactive: [1] 0.013 | [2] 0.002 | [3] -0.013 | [4] 0.017 | [5] -0.001

BNIP1 (UniProt Q12981)
inactive: [1] 0.021 | [2] -0.051 | [3] 0.001 | [4] 0.018 | [5] 0.149

BARD1 (UniProt Q99728)
inactive: [1] 0.062 | [2] -0.089 | [3] -0.042 | [4] -0.011 | [5] -0.143
